Assay results as given in patent US20200223915A1 (OSAKA UNIVERSITY, published 2020).
These are yes or no findings as the source states them, for the method shown. Some entries that bind do so weakly or less than the wild type.

Target: T1, wild-type human Claudin 5 protein (human, UniProt O00501 1-218)
T1 construct: also called hCLDN5; CLDN 5
T1 sequence: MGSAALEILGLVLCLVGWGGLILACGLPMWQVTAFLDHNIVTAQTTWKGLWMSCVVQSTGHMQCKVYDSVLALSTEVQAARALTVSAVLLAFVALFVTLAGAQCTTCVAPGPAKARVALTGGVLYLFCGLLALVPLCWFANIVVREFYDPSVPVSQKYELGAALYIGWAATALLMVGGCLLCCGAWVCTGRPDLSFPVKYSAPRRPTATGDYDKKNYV
Assay: FACS screening of hybridoma supernatants on human Claudin 5-expressing HT-1080 cells against mock cells; positive clones

B1: antibody 4A1 (antibody, IgG2b, V domains shown)
VH: QVQLQQSGAELARPGASVKLSCKASGYTFTSYGISWVNQRTGQGLEWIGEIYPRSGNTYFNEKFQGKATLTADKSSSTAYMELRSLTSEDSAVFFCARPYEGYFDYWGQGTTLTVSS
VL: DIVLTQSPASLAVSLGQRATISCRASKSVSTSGYSYMHWYQQKPGQPPKLLIYLASNLESGVPARFSGSGSGTDFTLNIHPVEEEDAATYYCQHSRELPFTFGSGTKLEIKR
**Q.** B1 was tested. Which binding did it give?
**A.** Its binding is “binds”.
